Residue numbers refer to the chain shown, from its start. No constants are given. Whether binding was seen depends on the method and setting. Binding seen in cells or lysates may run through a third protein. Some binding calls cover weakened binding; strength is not graded here. Sequences can lack the tags named with a protein. Values belong to the substance of their own block, whether it stands above or below them.
How the values were obtained:
[1] = biological target: T1, WT NPAS4-mycFlag (human Neuronal PAS factor 4) (human) (UniProt Q8IUM7); test: co-IP; HEK293T cells cotransfected with NPAS4-mycFlag and ARNT2 expression plasmids; whole cell extract incubated with Flag M2 resin in IP buffer (20 mM HEPES pH 8.0, 150 mM NaCl, 150 mM KCl); ARNT2 detected by anti-ARNT2 immunoblot
T1 sequence: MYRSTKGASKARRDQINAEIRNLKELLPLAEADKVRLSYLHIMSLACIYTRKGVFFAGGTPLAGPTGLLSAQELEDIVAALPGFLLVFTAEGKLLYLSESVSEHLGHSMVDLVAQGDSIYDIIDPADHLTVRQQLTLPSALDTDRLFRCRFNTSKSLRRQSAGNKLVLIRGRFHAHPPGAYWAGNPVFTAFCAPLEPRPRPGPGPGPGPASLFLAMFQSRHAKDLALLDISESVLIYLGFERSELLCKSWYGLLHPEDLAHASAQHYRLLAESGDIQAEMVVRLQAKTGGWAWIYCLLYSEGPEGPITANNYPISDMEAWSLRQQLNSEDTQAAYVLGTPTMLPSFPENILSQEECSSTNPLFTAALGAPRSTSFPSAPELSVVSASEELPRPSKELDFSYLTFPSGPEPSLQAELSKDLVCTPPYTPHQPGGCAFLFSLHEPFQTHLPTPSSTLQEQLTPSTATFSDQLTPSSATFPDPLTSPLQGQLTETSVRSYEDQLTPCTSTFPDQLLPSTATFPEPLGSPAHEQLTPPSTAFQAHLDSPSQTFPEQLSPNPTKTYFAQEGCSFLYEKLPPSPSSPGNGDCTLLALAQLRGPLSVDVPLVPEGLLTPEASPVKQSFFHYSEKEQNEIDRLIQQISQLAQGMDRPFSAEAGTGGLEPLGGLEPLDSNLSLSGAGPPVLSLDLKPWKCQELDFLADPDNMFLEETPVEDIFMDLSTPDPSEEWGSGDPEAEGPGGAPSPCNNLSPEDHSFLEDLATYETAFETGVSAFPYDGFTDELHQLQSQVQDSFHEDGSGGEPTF

By UniProt entry, the sequences of proteins in these tests, tags left out. Where a name states a change or a piece, a line headed by the entry shows the natural chain unless it says otherwise.
UniProt Q9HBZ2: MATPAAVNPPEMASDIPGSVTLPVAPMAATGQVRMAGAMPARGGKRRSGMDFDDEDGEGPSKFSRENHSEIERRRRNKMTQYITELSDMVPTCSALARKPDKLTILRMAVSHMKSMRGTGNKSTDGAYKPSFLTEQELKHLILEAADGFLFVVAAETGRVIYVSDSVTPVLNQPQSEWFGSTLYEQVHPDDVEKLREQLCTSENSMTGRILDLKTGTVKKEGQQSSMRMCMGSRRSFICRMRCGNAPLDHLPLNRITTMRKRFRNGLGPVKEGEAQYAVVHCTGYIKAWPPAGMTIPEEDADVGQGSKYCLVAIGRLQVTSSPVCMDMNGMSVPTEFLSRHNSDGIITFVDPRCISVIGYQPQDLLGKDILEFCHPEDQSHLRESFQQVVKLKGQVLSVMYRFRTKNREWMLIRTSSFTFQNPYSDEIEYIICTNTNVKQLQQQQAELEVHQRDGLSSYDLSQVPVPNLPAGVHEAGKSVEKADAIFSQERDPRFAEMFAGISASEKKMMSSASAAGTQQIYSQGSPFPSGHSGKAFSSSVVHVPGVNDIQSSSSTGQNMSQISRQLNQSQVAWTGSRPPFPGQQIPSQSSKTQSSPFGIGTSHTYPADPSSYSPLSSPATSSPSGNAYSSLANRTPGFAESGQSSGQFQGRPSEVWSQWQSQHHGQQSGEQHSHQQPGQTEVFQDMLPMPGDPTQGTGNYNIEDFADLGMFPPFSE

[2] = biological target: T1, WT NPAS4-mycFlag (human Neuronal PAS factor 4) (human); test: co-IP; data not shown; co-immunoprecipitation of ARNT2.R107H with NPAS4; no details given
[3] = biological target: T2, NPAS4.E257K-mycFlag (human) (UniProt Q8IUM7); test: co-IP; HEK293T cells transfected with NPAS4-mycFlag only; Flag M2 resin; endogenous ARNT2 detected by anti-ARNT2 immunoblot; band intensity quantified in 3 independent experiments
T2 sequence: T1 sequence with E257K

[4] = biological target: T3, NPAS4.F147A-mycFlag (human) (UniProt Q8IUM7); test: as above
T3 sequence: T1 sequence with F147A

[5] = biological target: T1, WT NPAS4-mycFlag (human Neuronal PAS factor 4) (human); test: as above

binding [1]: binds
Substance: ARNT2, overexpressed (human Aryl hydrocarbon Receptor Nuclear Translator 2) (from UniProt Q9HBZ2 1-717)

binding [2]: binds
Substance: ARNT2.R107H (from UniProt Q9HBZ2 1-717)

binding [3]: binds
binding [4]: binds
binding [5]: binds
Substance: endogenous ARNT2 (HEK293T) (from UniProt Q9HBZ2 1-717)

From PMC3894988, “Human Variants in the Neuronal Basic Helix-Loop-Helix/Per-Arnt-Sim (bHLH/PAS) Transcription Factor Complex NPAS4/ARNT2 Disrupt Function” (PLoS ONE, 2014)
